Consider one compound from ChEMBL document CHEMBL5214984, “Identification of Organic Anion Transporter 2 Inhibitors: Screening, Structure-Based Analysis, and Clinical Drug Interaction Risk Assessment” (J Med Chem, 2022).

As usually defined, the logD is the decadic logarithm of the distribution of all forms, ionised or not, between an organic phase and buffer at a given pH. Lower therefore signals a more hydrophilic compound.

The data set is described as follows: Lipophilicity, log D of the compound. The following applies: octanol/water.

`COC(=O)C1=C(C)NC(C)=C(C(=O)OC)C1c1ccccc1[N+](=O)[O-]` [NIFEDIPINE] yielded a logD of 3.13.
